Test system: chronic constriction injury (CCI) model, mechano-allodynia
Assay: Morphine analgesic tolerance in CCI model, co-administration with A3AR agonist
Settings: mouse, in vivo

With `CN1CC[C@]23c4c5ccc(O)c4O[C@H]2[C@@H](O)C=C[C@H]3[C@H]1C5` [morphine] the “Plasma levels of morphine in the presence or absence of the A3AR agonist” value was “similar”.

— patent publication US10577368B2 (The United States of America, as represented by the …, priority 2013, dated 2020)
